{"source": "paper PMC6811503", "binders": {"B1": {"name": "Spt16 (protein, UniProt J9VUL6 1-1034)", "chain": "MSDIRLDSATFFKRAAKIFDSWEKPTGDTQALEDIDAIAIILGDPNDEVASYTKTTALQLWLLGYEFPSTLMVFEKSPRKITFVCGSSKAKLIRQLQPSNGIEIDVKVRSKDATAAKETMEEVVASLNGKFGSLPKDRPIGKLVDEWNSAVETKGGLEVVDVAIPISAVLAEKDGEELKTIITSAKLTSTVMINYFKSKMESIIDRGTKMSHEALAQLVEEKIGNEEKGPDMKLWNKNPSLGEIDFASSEFVYSPVIQSGGKYDLKVTAASNNDNLKPGIILANMGIRYKNYCSNMGRTFLISPSKKQESQYTTLLEVRKEALALLKTGAVASDVYTSVHRSLETKNGTLADSFLKNLGFATGMEYRDSSFLLNAKNNRELKENMVLVLTIGVTDLPDSKNKGKTYSLLLSDTVKVGQNGAAVLTEGCTRLSDVVMDMEEEEEEDVKPQIDKKPKINNSPKKPRSSTVGGRVLNAKTRGANREQATQTTAEKIKTNQQRLHAQLNADGVKRWEADAGGKNGAQQKVVKRYESYRREEQLPRAVEDRRIYVDEQRQSVVLPINGYAVPYHISTIKNVTKTEESNHMVLRINFQSPGQIAGKKEDMPFEDPDANFIRSVSFRSQDLRHMLKVYEAITALKKAAVKRETERKELADVIEQEKLIEVKGRHPYVLKNVFPRPGPEGKKTDGNVEIHQNGIRFRPDGPASKIDILFSNIKHLFFQPSEKELIVIIHVHLKAPIMLGKKKTSDVQFYREVADMSFDETGGKKRRARYGDEDEIEQEQEDRKRRAELDKLFHDFARRIETAAQAQQFELEVDVPFRELGFNGVPHKSIVALLPTTNCLIHISELPFTVITLSEVEIVHLERVQFGLKNFDMVFVLQDLKKPPIHINSIPVAHLDNVKEWLDSCDVPISEGPVNLSWPAIMKTVNEDPHAFYAEGGWNFLTGSGSDDGSEESEEGSEFEGDSDVFDESSGSDEDSESDFEGDSDSGTAESLSDEGEDWDELERKAKRADEKHRTDRGDSDEDGKKKKKGSRR"}}, "molecular_target": "T1, Pbp1-4×FLAG (C. neoformans) (UniProt J9VND4)", "T1 sequence": "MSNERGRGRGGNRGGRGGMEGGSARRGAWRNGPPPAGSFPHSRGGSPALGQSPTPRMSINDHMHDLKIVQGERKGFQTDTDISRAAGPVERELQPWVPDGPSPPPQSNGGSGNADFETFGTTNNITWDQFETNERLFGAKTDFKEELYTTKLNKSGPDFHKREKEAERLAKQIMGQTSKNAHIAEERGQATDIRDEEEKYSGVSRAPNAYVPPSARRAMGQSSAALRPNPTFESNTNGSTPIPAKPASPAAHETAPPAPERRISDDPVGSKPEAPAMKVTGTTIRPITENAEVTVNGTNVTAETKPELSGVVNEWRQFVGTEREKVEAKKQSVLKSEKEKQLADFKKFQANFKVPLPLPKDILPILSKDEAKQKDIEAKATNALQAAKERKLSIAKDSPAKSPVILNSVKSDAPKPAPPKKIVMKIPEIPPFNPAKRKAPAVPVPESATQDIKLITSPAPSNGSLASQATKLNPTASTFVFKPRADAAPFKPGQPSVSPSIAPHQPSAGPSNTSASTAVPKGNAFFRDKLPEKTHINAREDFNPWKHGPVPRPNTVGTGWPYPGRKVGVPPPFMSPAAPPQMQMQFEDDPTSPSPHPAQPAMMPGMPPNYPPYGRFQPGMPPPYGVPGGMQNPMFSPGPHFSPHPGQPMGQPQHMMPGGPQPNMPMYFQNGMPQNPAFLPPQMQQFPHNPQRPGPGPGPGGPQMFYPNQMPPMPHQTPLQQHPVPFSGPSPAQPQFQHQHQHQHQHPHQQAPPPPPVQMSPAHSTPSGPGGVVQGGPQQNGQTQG", "test": "affinity purification with mass spectrometry; anti-FLAG M2 affinity gel on lysate of HP181 (Pbp1-4xFLAG), untagged H99 as control; cells grown at 30°C then 1 h at 37°C; lysis buffer 50 mM Tris-HCl pH 7.5, 150 NaCl, 0.5 mM EDTA, 0.5% Triton X-100; 4°C; one Coomassie-stained band seen only with HP181 was excised, digested with trypsin and analysed by LC-MS/MS", "note": "These are yes or no findings as the source states them, for the method shown. Binding seen in cells or lysates may run through a third protein. A yes stands for co-enrichment or nearness to the bait. Other partners may have been found. Where a sequence is shown, tags or fusion partners need not be part of it."}
{"binder": "B1", "values": [{"measurement": "binding", "value": "binds"}]}
